Results as given in the supplement of paper PMC10849652.
The other results are listed elsewhere or left out.

By UniProt entry, the sequences of proteins in these tests, tags left out. Where a name states a change or a piece, a line headed by the entry shows the natural chain unless it says otherwise.
UniProt Q8WXI9: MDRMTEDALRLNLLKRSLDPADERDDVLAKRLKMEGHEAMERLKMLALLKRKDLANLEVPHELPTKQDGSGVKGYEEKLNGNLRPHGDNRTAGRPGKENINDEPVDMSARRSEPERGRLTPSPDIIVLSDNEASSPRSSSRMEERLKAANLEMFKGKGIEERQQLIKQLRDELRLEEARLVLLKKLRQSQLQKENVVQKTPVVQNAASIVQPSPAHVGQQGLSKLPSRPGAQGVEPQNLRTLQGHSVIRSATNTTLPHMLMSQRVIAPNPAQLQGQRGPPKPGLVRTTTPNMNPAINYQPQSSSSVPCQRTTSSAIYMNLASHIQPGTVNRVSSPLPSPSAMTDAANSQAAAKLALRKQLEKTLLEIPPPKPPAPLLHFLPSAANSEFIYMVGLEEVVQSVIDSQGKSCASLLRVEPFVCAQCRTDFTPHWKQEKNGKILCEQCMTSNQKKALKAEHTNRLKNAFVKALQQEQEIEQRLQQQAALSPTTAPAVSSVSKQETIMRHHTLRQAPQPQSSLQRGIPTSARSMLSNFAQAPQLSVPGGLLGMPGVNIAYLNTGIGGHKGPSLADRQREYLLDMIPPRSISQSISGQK
UniProt Q06547, whole entry, looked up: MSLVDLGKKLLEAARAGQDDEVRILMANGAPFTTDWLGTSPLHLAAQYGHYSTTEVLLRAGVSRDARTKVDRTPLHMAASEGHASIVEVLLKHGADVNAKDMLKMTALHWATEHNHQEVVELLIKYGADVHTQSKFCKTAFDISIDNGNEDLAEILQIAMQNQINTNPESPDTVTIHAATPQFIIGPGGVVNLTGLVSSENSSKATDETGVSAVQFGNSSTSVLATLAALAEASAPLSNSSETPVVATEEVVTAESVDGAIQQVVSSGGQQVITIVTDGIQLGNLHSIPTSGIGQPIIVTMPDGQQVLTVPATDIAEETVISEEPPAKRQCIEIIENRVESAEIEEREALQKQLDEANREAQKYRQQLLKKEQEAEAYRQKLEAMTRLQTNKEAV
UniProt Q92538, whole entry, looked up: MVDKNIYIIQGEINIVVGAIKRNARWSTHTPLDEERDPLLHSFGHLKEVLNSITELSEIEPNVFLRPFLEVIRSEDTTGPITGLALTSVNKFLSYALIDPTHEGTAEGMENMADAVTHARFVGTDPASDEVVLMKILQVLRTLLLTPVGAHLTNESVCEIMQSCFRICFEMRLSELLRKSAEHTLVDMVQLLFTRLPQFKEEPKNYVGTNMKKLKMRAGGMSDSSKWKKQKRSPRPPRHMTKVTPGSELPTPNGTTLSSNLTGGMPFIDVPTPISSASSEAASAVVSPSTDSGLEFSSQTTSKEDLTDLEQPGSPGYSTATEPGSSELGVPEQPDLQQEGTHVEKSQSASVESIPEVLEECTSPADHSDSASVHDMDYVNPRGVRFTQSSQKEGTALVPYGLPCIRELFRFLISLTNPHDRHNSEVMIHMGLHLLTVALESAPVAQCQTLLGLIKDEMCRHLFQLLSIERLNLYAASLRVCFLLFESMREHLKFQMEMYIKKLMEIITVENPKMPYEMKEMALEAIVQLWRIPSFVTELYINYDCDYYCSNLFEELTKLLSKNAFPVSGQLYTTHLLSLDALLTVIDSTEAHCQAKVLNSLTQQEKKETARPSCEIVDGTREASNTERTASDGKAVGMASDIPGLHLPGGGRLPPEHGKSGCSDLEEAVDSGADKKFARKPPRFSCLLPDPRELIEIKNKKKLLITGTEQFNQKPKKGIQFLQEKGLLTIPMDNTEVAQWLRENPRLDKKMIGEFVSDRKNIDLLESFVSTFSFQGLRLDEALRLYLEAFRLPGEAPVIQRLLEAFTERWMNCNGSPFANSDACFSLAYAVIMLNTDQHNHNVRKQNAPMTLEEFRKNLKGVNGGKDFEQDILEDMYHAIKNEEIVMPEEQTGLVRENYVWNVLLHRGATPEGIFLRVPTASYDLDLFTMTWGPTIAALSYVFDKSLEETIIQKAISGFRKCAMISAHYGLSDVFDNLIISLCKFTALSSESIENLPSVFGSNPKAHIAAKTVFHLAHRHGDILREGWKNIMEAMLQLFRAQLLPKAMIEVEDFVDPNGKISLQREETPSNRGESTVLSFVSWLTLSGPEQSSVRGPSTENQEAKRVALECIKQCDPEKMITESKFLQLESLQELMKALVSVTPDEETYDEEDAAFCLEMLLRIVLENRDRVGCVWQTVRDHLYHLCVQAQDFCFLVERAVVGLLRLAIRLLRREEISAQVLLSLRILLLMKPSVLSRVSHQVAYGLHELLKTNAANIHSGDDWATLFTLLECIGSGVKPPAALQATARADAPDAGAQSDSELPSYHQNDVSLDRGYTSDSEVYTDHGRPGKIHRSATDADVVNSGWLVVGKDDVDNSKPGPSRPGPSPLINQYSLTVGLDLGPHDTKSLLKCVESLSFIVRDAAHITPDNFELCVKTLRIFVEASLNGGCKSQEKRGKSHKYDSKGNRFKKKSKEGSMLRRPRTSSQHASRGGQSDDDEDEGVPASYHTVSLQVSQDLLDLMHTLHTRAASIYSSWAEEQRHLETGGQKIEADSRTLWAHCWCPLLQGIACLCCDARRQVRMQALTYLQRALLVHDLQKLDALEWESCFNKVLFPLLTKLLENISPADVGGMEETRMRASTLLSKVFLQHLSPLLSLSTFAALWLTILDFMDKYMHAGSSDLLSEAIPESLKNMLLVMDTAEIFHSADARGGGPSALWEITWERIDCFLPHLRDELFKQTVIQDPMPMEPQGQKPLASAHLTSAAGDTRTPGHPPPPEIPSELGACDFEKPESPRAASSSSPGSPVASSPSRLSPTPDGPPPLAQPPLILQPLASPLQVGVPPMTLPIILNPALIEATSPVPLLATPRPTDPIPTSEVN
UniProt Q7L5D6: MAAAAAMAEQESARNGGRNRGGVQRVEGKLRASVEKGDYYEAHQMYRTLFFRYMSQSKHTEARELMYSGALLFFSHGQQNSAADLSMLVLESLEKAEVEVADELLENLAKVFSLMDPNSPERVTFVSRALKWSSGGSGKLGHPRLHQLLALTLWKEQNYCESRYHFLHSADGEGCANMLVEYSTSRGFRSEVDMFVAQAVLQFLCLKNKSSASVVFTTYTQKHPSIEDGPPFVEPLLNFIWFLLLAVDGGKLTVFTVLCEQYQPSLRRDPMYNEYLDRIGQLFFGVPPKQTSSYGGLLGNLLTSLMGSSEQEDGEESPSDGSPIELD
UniProt O43716: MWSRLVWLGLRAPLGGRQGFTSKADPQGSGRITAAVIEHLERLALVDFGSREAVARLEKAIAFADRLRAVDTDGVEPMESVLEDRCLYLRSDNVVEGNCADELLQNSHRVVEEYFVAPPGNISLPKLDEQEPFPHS
UniProt P51116, whole entry, looked up: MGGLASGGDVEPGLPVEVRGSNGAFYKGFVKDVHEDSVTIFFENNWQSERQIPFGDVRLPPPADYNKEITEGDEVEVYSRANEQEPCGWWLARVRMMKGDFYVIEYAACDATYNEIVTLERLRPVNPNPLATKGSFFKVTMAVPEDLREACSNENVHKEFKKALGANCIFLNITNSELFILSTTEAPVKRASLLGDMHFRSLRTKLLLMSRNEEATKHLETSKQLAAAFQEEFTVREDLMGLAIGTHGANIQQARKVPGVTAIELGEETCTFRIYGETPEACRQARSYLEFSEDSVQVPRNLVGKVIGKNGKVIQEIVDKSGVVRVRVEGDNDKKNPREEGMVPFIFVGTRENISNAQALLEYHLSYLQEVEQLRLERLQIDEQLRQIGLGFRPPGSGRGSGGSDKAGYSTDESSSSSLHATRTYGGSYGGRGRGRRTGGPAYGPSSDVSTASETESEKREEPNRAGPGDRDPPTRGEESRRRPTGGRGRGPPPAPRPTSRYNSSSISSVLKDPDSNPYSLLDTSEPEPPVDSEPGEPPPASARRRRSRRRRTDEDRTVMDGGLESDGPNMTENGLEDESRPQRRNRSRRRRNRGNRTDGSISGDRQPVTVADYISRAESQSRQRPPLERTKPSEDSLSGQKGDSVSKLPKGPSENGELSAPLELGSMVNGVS
UniProt O75600: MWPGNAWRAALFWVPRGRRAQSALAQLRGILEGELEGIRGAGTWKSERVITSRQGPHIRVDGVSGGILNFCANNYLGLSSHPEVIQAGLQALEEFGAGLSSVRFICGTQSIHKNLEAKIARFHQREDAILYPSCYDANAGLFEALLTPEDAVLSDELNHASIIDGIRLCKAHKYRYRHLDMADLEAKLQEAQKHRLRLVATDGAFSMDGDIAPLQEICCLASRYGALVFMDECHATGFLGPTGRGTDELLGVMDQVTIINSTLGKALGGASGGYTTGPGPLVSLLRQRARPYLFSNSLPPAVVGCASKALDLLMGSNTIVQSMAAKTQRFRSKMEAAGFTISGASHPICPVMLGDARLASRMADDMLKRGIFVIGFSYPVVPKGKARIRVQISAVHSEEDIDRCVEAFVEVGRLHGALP
UniProt Q8NCL4: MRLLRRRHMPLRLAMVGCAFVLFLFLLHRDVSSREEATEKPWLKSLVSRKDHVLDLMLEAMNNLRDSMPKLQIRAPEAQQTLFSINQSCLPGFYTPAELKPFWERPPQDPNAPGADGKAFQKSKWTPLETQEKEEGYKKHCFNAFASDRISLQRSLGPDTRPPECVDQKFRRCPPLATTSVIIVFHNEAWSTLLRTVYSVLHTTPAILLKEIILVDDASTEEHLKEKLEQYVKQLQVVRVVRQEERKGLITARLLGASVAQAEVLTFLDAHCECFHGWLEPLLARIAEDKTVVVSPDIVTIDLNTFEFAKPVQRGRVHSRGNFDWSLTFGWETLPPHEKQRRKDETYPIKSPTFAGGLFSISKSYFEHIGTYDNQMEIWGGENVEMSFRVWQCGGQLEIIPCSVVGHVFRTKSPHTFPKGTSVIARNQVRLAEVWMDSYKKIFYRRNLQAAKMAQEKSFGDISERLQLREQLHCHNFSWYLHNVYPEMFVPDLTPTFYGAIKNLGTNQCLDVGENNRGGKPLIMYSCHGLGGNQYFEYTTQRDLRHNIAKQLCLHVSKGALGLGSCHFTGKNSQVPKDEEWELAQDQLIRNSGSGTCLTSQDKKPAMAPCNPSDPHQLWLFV
UniProt Q13069: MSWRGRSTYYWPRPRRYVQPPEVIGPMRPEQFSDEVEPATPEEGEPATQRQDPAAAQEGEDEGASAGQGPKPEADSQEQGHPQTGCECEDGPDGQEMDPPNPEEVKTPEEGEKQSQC
UniProt Q9UJY5: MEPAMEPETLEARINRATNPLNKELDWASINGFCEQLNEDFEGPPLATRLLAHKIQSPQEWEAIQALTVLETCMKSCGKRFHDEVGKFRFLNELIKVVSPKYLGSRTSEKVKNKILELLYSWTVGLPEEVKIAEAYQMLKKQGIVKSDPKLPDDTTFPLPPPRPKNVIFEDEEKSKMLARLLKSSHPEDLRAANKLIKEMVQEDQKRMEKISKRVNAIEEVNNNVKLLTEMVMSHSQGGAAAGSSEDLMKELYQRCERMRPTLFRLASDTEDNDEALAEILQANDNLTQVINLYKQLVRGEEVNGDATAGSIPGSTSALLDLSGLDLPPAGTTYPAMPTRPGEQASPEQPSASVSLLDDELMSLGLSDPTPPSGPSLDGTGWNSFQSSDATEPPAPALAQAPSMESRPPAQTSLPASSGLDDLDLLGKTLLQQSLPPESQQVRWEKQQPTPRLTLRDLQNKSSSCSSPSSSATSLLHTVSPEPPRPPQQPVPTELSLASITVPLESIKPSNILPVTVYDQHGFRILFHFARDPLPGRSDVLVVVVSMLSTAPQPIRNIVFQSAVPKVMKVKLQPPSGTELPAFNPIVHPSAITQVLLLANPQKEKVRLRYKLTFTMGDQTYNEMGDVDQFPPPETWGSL
UniProt Q96AE4: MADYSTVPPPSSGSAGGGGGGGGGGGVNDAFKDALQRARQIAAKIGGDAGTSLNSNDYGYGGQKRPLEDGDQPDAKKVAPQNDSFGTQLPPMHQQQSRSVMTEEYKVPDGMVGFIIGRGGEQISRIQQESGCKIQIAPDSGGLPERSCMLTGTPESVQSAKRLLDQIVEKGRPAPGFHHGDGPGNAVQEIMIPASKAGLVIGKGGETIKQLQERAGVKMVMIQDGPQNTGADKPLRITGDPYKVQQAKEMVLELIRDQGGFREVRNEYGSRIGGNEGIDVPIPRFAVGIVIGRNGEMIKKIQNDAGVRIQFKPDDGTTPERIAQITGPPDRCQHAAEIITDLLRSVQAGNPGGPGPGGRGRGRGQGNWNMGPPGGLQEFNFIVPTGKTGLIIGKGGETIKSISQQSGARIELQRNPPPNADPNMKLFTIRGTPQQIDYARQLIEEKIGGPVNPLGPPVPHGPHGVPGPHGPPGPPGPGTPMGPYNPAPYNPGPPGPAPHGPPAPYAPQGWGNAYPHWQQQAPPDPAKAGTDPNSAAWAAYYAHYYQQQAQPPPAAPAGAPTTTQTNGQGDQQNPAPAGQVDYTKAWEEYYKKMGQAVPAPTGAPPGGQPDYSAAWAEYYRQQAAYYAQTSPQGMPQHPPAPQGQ
UniProt P30047: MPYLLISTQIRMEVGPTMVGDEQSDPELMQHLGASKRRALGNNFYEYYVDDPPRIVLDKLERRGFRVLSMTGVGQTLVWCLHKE

What was measured:
Test in all cases: log2 fold change, soluble protein after heating vs DMSO (PISA); higher = thermal stabilisation; K562 lysate, 10 uM; active = over 0.2 and 3.5 SD of the protein, either way, in both replicates (recomputed)
[1] = compound: NCC(=O)Nc1ccc(-n2nc(C(F)(F)F)cc2-c2ccc3c(ccc4ccccc43)c2)cc1
How it was run: (§1)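 Soluble protein was defined as the supernatant remaining after 21,000xg for 90 min, following pooling of heated aliquots and adjustment to 0.5% NP-40 at 4°C. Before that, crude K562 extract at 1 mg/mL protein in PBS pH 7.4 with 1 mM MgCl2 was treated with 10 μM compound for 30 min and heated for 3 min across 48°C-58°C. Quantification used TMTpro 16plex LC-MS/MS with channel sums equalised, and values are log-two fold changes in thermal stability relative to solvent controls from duplicates.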

vorinostat = compound: O=C(CCCCCCC(=O)Nc1ccccc1)NO [vorinostat]
How it was run: as §1

silmitasertib = compound: O=C(O)c1ccc2c(c1)nc(Nc1cccc(Cl)c1)c1ccncc12 [silmitasertib]
How it was run: as §1

[2] = compound: O=C1NC(=O)C(c2cnc3ccccn23)=C1c1cn2c3c(cc(F)cc13)CN(C(=O)N1CCCCC1)CC2
How it was run: as §1

entospletinib = compound: c1cn2cc(-c3ccc4cn[nH]c4c3)nc(Nc3ccc(N4CCOCC4)cc3)c2n1 [entospletinib]
How it was run: as §1

Target	log2 fold change [1]	log2 fold change (vorinostat)	log2 fold change (silmitasertib)	log2 fold change [2]	log2 fold change (entospletinib)
FUNDC2 (UniProt H7C0K8)	inactive: 0.193	–	–	–	–
GATAD2B (UniProt Q8WXI9)	inactive: 0.037	inactive: -0.162	inactive: -0.056	inactive: 0.02	inactive: -0.022
GBE1 (UniProt Q04446)	inactive: -0.013	inactive: 0.015	inactive: 0.019	inactive: -0.035	inactive: 0.063
GDPD1 (UniProt Q8N9F7)	inactive: -0.137	inactive: 0.056	inactive: 0.033	inactive: 0.177	inactive: -0.092
GDI2 (UniProt Q5SX86)	inactive: -0.126	inactive: -0.031	inactive: 0.066	–	–
G3BP1 (UniProt Q13283)	inactive: -0.002	inactive: 0.043	inactive: 0	inactive: -0.013	inactive: -0.018
FTO (UniProt Q9C0B1)	inactive: 0.006	inactive: -0.03	inactive: 0.041	inactive: 0.005	inactive: 0.006
FXR1 (UniProt P51114)	inactive: -0.006	active: -0.257	inactive: 0.045	inactive: -0.041	inactive: 0.023
GATD1 (UniProt Q8NB37)	inactive: -0.02	inactive: 0.204	inactive: -0.029	inactive: 0.033	inactive: 0.024
FYB1 isoform 3 (UniProt O15117)	inactive: 0.007	inactive: 0.002	inactive: -0.021	inactive: 0	inactive: -0.006
GAK (UniProt O14976)	inactive: 0.186	inactive: -0.027	inactive: 0.405	inactive: -0.022	inactive: 0.076
GABPB1 isoform 3 (UniProt Q06547)	inactive: -0.012	active: -0.41	inactive: 0.08	inactive: 0.067	inactive: -0.024
GBF1 (UniProt Q92538)	inactive: -0.019	active: -0.304	inactive: 0.023	inactive: 0.043	inactive: 0.008
GADD45GIP1 (UniProt Q8TAE8)	inactive: 0.017	inactive: 0.103	inactive: 0.051	inactive: -0.01	inactive: 0.094
FURIN (UniProt P09958)	inactive: 0.024	inactive: 0.048	inactive: -0.045	inactive: 0.008	inactive: 0.123
FRMD8 (UniProt Q9BZ67)	inactive: -0.023	inactive: 0.003	inactive: 0.02	inactive: -0.017	inactive: -0.081
FUCA1 (UniProt P04066)	inactive: 0.004	inactive: 0.111	inactive: 0.024	inactive: -0.049	inactive: 0.027
FOXK2 (UniProt Q01167)	inactive: 0.049	inactive: -0.125	inactive: 0.02	inactive: -0.019	inactive: 0.001
FUCA2 (UniProt Q9BTY2)	inactive: -0.018	inactive: 0.127	inactive: -0.015	inactive: -0.012	inactive: 0.029
GATB (UniProt O75879)	inactive: -0.026	–	–	–	–
FUNDC1 (UniProt Q8IVP5)	inactive: 0.035	inactive: 0.113	inactive: 0.003	inactive: 0.098	inactive: 0.066
GFER (UniProt P55789)	inactive: -0.04	inactive: 0.129	inactive: -0.028	inactive: -0.04	inactive: -0.075
GART (UniProt P22102)	inactive: 0.017	active: -0.303	inactive: 0.006	inactive: 0.003	inactive: 0.012
GET4 (UniProt Q7L5D6)	inactive: 0.039	inactive: 0.092	inactive: -0.001	inactive: 0.024	inactive: 0.025
GATC (UniProt O43716)	inactive: -0.066	inactive: 0.069	inactive: 0.047	inactive: -0.086	inactive: -0.154
FOXO3B, A0A2Z4LIS9	inactive: -0.01	–	–	–	–
GALK1 isoform 2 (UniProt P51570)	inactive: -0.017	active: -0.338	inactive: 0.063	inactive: 0.023	inactive: -0.088
FXR2 (UniProt P51116)	inactive: 0.033	active: -0.25	inactive: -0.039	inactive: -0.022	inactive: -0.064

Reprinted at random: two records from the list.
Target	log2 fold change [1]	log2 fold change (vorinostat)	log2 fold change (silmitasertib)	log2 fold change [2]	log2 fold change (entospletinib)
GAK (UniProt O14976)	inactive: 0.186	inactive: -0.027	inactive: 0.405	inactive: -0.022	inactive: 0.076
FUCA2 (UniProt Q9BTY2)	inactive: -0.018	inactive: 0.127	inactive: -0.015	inactive: -0.012	inactive: 0.029

(cont.)

Target	log2 fold change [1]	log2 fold change (vorinostat)	log2 fold change (silmitasertib)	log2 fold change [2]	log2 fold change (entospletinib)
GEMIN2 (UniProt O14893)	inactive: 0.003	active: -0.425	inactive: 0.002	inactive: 0.04	inactive: -0.005
GALNT11 (UniProt Q8NCW6)	inactive: -0.072	inactive: 0.108	inactive: 0.05	inactive: -0.022	inactive: -0.024
GABARAP (UniProt O95166)	inactive: -0.02	inactive: 0.159	inactive: 0.056	inactive: 0.06	inactive: -0.024
GALNS (UniProt P34059)	inactive: -0.011	inactive: 0.087	inactive: -0.017	inactive: -0.003	inactive: -0.073
FSCN1 (UniProt Q16658)	inactive: -0.031	inactive: 0.102	inactive: 0.011	inactive: 0.008	inactive: 0.006
GALNT12 (UniProt Q8IXK2)	inactive: 0.047	inactive: 0.087	inactive: 0	inactive: -0.102	inactive: -0.024
FUNDC2 (UniProt Q9BWH2)	inactive: 0.024	inactive: 0.134	inactive: -0.027	inactive: 0.018	inactive: 0.029
GCAT isoform 2 (UniProt O75600)	inactive: -0.053	inactive: -0.071	inactive: 0.038	inactive: -0.014	inactive: 0.003
FOXO3 (UniProt O43524)	inactive: 0.062	inactive: -0.398	inactive: 0.073	inactive: -0.034	inactive: -0.09
FRG1 (UniProt Q14331)	inactive: -0.007	inactive: -0.063	inactive: -0.002	inactive: 0.037	inactive: -0.02
GALNT6 (UniProt Q8NCL4)	inactive: -0.087	inactive: 0.082	inactive: -0.035	inactive: 0.067	inactive: -0.037
GALC (UniProt P54803)	inactive: 0.027	inactive: -0.043	inactive: -0.025	inactive: -0.073	inactive: -0.005
FYCO1 isoform 4 (UniProt Q9BQS8)	inactive: -0.002	inactive: -0.002	inactive: 0.047	inactive: 0.033	inactive: -0.002
GAGE5 (UniProt Q13069)	inactive: -0.037	inactive: 0.145	inactive: -0.012	inactive: 0.031	inactive: -0.201
FREM2 (UniProt Q5SZK8)	inactive: 0.094	inactive: 0.048	inactive: 0.085	inactive: -0.11	inactive: -0.003
GAGE2A (UniProt Q6NT46)	inactive: 0.017	inactive: 0.132	inactive: -0.105	inactive: -0.001	inactive: -0.154
GGA1 isoform 6 (UniProt Q9UJY5)	inactive: 0.029	inactive: 0.026	inactive: 0.01	inactive: -0.006	inactive: 0.001
FTL (UniProt P02792)	inactive: -0.064	inactive: 0.018	inactive: 0.057	inactive: 0.011	inactive: -0.151
G3BP2 (UniProt Q9UN86)	inactive: 0.022	inactive: 0.006	inactive: -0.006	inactive: -0.004	inactive: -0.001
GDI1 (UniProt P31150)	inactive: -0.022	inactive: 0.107	inactive: 0.001	inactive: -0.009	inactive: -0.002
GFM2 (UniProt Q969S9)	inactive: 0.055	inactive: -0.153	inactive: 0.085	inactive: 0.065	inactive: -0.095
GAB2 (UniProt Q9UQC2)	inactive: -0.004	inactive: -0.206	inactive: -0.035	inactive: -0.036	inactive: -0.013
FRRS1 (UniProt Q6ZNA5)	inactive: 0.007	inactive: 0.125	inactive: -0.022	inactive: -0.01	inactive: -0.012
GABARAPL1 isoform 2 (UniProt Q9H0R8)	inactive: 0.065	inactive: 0.122	inactive: -0.023	inactive: 0.037	inactive: 0.03
FUBP1 isoform 2 (UniProt Q96AE4)	inactive: 0.005	inactive: 0.128	inactive: 0.005	inactive: -0.027	inactive: 0.008
GCHFR (UniProt P30047)	inactive: -0.051	inactive: 0.04	inactive: 0.019	inactive: -0.031	inactive: -0.068
FOXP1 (UniProt Q9H334)	inactive: 0.088	inactive: -0.18	inactive: -0.016	inactive: 0.024	inactive: -0.018
